Test [1] addresses T1, FLAG-BNIP-H full length (expressed in PC12 cells) (human) (UniProt Q86WG3).
T1 sequence: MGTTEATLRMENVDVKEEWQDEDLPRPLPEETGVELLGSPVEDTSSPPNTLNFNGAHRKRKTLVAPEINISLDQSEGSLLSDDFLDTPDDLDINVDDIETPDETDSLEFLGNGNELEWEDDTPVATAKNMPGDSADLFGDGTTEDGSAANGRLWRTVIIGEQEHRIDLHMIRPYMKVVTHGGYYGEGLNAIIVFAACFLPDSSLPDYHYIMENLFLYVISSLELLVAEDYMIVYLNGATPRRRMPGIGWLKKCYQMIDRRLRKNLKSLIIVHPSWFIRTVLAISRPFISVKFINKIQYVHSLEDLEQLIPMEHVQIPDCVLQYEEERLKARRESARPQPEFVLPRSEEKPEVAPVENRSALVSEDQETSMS
As to the kind of experiment: co-IP; PC12 cells transfected with FLAG-BNIP-H full length alone or with HA-Pin1 or HA-Rac1, NGF for 24 hours; anti-FLAG precipitate blotted for endogenous kidney-type glutaminase.

By UniProt entry, the sequences of proteins in these tests, tags left out. Residues count along the entry.
UniProt Q13526: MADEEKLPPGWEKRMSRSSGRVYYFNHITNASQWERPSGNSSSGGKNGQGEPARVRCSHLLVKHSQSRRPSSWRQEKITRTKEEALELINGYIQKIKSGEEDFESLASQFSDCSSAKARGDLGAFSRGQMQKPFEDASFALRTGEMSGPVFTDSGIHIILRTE
UniProt P13264, residues 55-674: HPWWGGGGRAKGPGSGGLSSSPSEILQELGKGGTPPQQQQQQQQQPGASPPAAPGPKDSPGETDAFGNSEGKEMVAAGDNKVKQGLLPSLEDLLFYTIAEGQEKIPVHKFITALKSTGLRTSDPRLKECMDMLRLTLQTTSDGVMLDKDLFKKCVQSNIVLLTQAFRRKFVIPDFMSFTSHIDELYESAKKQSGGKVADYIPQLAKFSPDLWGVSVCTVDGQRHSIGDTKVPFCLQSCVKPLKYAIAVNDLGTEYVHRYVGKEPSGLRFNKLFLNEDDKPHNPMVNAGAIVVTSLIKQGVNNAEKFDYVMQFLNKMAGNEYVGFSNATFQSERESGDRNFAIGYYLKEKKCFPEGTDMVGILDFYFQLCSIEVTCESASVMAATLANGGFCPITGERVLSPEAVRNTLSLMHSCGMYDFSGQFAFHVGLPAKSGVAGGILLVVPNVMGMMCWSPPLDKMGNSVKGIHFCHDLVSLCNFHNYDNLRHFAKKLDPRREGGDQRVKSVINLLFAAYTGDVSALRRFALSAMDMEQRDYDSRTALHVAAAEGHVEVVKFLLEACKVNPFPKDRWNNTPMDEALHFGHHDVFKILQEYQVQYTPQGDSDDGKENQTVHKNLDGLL

Test [2] deals with triple FLAG-tagged Pin1 (expressed in PC12 cells) (human) (UniProt Q13526). As to the kind of experiment: co-IP; PC12 cells co-transfected and treated with NGF; RIPA lysate; anti-FLAG agarose precipitates triple FLAG-Pin1; blot with anti-HA.
Test [3] addresses T2, FLAG-tagged C-terminal BNIP-H fragment (aa 286–371) (human) (UniProt Q86WG3).
T2 sequence: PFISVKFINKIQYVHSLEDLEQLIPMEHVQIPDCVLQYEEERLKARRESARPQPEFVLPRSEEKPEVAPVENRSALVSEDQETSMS
Kind of test: co-IP; 293T cells co-transfected, no stimulation; lysis buffer 50 mM HEPES pH 7.4, 150 mM NaCl, 1% Triton X-100; anti-FLAG agarose precipitates the FLAG-tagged protein, 4°C; blot with anti-HA.

These are yes or no findings as the source states them, for the method shown. Binding seen in cells or lysates may run through a third protein. Some binding calls cover weakened binding; strength is not graded here. Where a sequence is shown, tags or fusion partners need not be part of it.

As for “endogenous kidney-type glutaminase (from UniProt P13264 55-674) (enzyme)”, the binding entry in test [1] is reported as “binds”.

B1: HA-BNIP-2 (protein, UniProt Q12982 1-314)
chain: MEGVELKEEWQDEDFPIPLPEDDSIEADILAITGPEDQPGSLEVNGNKVRKKLMAPDISLTLDPSDGSVLSDDLDESGEIDLDGLDTPSENSNEFEWEDDLPKPKTTEVIRKGSITEYTAAEEKEDGRRWRMFRIGEQDHRVDMKAIEPYKKVISHGGYYGDGLNAIVVFAVCFMPESSQPNYRYLMDNLFKYVIGTLELLVAENYMIVYLNGATTRRKMPSLGWLRKCYQQIDRRLRKNLKSLIIVHPSWFIRTLLAVTRPFISSKFSQKIRYVFNLAELAELVPMEYVGIPECIKQVDQELNGKQDEPKNEQ
For the molecule B1, the binding result in test [2] is recorded as “no binding”.

B2: HA-BNIP-H aa 1–190 (expressed in 293T cells) (domain or fragment, UniProt Q86WG3 1-190)
chain: MGTTEATLRMENVDVKEEWQDEDLPRPLPEETGVELLGSPVEDTSSPPNTLNFNGAHRKRKTLVAPEINISLDQSEGSLLSDDFLDTPDDLDINVDDIETPDETDSLEFLGNGNELEWEDDTPVATAKNMPGDSADLFGDGTTEDGSAANGRLWRTVIIGEQEHRIDLHMIRPYMKVVTHGGYYGEGLNA
As to B2, the binding result in test [3] is listed as “no binding”.

B3: HA-BNIP-H aa 1–287 (expressed in 293T cells) (domain or fragment, UniProt Q86WG3 1-287)
chain: MGTTEATLRMENVDVKEEWQDEDLPRPLPEETGVELLGSPVEDTSSPPNTLNFNGAHRKRKTLVAPEINISLDQSEGSLLSDDFLDTPDDLDINVDDIETPDETDSLEFLGNGNELEWEDDTPVATAKNMPGDSADLFGDGTTEDGSAANGRLWRTVIIGEQEHRIDLHMIRPYMKVVTHGGYYGEGLNAIIVFAACFLPDSSLPDYHYIMENLFLYVISSLELLVAEDYMIVYLNGATPRRRMPGIGWLKKCYQMIDRRLRKNLKSLIIVHPSWFIRTVLAISRPF
With B3, in test [3], the binding result is recorded as “binds”.

For the origin of these results see paper PMC2442193.
